Results reported in the supplement of paper PMC7666118.
The other results are listed elsewhere or left out.

Chains of the proteins cited; added tags and fusions are not shown. Lines headed by an entry give the natural chain unless they say otherwise; changes in a name come on top.
UniProt Q96ES7: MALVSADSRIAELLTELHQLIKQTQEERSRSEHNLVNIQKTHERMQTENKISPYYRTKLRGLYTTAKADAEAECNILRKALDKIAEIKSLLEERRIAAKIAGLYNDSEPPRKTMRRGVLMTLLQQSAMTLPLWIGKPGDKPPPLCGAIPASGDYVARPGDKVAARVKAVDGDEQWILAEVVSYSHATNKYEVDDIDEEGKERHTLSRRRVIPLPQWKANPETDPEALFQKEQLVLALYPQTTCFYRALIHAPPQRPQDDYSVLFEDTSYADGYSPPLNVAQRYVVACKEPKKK
UniProt P30279, whole entry: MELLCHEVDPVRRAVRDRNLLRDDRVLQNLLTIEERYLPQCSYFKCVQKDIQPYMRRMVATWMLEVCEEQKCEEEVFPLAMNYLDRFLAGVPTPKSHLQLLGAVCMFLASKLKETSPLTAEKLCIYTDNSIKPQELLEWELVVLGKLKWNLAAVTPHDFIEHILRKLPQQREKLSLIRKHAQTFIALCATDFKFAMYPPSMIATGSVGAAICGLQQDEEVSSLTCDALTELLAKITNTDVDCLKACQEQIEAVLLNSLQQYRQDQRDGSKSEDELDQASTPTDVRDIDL
UniProt Q8TEP8: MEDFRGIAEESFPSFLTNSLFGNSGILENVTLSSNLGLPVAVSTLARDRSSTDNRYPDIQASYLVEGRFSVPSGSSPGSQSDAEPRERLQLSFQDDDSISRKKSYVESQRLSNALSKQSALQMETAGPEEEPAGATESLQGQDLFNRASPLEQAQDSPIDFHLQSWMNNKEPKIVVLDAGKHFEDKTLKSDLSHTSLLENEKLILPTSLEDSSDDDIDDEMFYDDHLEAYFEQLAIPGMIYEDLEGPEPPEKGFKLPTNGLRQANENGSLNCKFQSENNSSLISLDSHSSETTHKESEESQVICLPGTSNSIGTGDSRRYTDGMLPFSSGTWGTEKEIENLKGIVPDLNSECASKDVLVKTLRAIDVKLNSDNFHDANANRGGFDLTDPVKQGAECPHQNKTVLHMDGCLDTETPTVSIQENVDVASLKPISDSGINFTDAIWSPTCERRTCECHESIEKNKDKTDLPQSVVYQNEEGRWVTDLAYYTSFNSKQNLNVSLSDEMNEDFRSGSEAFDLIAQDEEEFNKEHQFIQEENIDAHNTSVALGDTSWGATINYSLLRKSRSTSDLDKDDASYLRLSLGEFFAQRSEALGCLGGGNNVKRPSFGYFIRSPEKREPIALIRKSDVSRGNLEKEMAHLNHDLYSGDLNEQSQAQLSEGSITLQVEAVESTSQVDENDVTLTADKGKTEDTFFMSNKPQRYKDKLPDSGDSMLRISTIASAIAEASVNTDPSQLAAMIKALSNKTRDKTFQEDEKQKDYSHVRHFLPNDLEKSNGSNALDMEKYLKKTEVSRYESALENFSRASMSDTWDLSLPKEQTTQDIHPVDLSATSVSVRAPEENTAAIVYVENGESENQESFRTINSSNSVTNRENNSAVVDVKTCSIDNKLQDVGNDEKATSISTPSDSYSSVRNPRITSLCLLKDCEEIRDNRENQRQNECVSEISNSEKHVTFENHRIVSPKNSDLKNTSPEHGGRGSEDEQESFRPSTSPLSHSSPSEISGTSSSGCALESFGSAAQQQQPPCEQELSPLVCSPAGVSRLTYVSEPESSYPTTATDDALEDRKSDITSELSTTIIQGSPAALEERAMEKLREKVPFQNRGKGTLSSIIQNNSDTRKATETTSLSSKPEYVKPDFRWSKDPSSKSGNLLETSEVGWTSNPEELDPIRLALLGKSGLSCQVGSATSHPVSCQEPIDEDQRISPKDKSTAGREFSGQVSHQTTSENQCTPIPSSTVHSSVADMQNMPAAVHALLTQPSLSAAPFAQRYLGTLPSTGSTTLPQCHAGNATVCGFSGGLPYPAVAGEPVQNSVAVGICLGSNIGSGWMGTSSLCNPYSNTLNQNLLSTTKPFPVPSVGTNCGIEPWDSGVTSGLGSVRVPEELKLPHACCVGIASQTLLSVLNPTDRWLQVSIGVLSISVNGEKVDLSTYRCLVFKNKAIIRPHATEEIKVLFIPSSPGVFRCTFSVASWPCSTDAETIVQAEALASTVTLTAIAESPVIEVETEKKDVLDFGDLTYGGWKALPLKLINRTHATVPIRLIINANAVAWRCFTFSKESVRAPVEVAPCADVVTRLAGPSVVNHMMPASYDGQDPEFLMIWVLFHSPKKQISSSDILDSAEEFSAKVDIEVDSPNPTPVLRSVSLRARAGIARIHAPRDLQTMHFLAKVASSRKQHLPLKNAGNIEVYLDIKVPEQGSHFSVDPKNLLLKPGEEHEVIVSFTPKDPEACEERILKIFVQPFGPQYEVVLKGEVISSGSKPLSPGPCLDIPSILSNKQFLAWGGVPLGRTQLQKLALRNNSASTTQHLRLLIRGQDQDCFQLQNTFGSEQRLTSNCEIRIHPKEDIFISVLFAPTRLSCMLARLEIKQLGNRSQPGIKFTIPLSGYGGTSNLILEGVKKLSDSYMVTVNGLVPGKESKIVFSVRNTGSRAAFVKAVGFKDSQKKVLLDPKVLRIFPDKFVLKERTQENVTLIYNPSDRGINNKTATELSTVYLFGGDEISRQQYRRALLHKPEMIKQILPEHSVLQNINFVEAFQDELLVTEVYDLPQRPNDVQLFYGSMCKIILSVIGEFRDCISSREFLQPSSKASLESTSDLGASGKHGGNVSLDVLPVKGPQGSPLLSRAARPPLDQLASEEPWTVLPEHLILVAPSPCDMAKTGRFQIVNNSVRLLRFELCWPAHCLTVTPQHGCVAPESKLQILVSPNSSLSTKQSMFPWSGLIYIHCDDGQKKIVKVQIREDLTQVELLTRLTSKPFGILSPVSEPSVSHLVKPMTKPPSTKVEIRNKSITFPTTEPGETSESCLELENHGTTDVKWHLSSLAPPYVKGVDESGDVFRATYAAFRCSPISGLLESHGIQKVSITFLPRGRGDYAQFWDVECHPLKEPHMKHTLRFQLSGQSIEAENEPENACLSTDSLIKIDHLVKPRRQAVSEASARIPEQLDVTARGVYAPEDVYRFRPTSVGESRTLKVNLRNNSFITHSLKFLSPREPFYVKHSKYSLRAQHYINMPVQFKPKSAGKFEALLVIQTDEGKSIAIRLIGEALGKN
UniProt O00748: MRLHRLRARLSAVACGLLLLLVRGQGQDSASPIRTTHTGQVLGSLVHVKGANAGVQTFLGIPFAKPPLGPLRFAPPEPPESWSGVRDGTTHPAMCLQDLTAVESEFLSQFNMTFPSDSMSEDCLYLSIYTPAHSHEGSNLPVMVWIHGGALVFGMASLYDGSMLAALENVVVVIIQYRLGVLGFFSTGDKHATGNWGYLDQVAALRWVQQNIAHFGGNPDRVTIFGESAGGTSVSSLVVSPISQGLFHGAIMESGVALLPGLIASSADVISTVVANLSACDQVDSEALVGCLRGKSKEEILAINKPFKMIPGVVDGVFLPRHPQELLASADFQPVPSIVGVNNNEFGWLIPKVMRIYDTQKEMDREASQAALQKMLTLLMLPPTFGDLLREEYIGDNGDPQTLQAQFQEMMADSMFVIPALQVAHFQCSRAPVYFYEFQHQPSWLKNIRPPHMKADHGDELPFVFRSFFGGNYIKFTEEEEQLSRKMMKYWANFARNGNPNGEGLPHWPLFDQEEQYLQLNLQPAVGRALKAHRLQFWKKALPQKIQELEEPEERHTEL
UniProt Q8NCX0: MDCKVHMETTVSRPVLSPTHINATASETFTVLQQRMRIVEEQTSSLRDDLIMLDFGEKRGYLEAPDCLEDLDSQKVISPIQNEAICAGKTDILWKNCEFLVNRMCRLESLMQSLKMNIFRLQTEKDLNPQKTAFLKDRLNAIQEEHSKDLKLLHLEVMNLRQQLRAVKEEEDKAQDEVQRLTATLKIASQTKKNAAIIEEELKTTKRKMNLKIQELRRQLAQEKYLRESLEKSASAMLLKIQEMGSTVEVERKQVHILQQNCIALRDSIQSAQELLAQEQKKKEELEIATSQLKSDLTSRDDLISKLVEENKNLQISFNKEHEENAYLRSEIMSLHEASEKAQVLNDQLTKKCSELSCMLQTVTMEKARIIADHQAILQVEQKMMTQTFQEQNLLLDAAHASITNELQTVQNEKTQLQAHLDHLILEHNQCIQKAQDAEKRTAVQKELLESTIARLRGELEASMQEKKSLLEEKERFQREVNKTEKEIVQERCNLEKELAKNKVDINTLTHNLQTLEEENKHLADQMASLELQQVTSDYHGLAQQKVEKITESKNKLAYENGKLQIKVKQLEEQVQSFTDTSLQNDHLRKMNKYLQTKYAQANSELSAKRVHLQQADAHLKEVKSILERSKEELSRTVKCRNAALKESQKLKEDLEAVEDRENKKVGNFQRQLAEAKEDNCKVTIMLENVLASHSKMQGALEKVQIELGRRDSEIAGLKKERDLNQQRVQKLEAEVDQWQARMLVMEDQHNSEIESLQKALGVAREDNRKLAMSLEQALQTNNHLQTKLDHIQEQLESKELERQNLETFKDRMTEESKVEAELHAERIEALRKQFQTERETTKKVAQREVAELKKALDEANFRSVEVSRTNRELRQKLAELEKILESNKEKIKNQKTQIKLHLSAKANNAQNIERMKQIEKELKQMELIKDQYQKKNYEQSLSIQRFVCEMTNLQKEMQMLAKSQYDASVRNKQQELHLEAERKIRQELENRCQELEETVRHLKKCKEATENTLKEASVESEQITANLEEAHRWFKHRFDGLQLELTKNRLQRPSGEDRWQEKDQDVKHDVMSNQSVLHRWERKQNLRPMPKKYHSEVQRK
UniProt P27701: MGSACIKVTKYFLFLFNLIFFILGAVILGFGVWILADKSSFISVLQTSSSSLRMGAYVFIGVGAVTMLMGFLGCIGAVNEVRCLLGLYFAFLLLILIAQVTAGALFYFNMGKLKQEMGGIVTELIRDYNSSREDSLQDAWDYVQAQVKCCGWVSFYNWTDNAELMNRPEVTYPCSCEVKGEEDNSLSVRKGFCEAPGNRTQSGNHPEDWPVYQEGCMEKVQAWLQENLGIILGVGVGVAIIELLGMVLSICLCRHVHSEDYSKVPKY
UniProt Q8WUX2: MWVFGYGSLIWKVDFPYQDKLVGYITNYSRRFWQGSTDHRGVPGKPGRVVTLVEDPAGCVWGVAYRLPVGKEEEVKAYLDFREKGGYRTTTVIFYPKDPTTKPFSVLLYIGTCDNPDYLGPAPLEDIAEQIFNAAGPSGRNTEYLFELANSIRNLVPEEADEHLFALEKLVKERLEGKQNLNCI
UniProt Q9Y259: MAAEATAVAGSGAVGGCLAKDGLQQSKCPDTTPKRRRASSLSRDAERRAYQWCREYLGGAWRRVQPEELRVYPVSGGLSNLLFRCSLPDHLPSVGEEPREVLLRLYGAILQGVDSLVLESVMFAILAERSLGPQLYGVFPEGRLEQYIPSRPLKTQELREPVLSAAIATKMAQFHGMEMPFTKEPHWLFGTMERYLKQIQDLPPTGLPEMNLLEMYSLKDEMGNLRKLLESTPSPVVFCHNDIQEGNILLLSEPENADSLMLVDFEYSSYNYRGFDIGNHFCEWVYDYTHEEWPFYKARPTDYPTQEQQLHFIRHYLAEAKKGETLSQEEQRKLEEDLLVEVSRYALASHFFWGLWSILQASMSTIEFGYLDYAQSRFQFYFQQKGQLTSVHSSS
UniProt Q9Y696: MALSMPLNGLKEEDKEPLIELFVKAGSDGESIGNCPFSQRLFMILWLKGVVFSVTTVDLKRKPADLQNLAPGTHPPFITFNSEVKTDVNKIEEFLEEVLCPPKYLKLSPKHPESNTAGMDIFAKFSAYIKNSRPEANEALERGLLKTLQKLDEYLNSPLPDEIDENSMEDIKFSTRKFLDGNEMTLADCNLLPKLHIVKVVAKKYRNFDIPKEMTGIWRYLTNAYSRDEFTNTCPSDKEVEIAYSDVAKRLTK
UniProt O75794: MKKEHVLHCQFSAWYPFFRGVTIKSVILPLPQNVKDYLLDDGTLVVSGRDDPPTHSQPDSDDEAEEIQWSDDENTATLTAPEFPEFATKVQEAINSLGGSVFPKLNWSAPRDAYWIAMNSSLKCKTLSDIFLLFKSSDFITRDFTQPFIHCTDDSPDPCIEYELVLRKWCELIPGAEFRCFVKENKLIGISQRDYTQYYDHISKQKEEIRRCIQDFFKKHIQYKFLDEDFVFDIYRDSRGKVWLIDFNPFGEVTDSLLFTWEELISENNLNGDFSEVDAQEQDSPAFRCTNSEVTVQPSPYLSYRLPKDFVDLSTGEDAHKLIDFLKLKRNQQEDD
UniProt Q8NCH0: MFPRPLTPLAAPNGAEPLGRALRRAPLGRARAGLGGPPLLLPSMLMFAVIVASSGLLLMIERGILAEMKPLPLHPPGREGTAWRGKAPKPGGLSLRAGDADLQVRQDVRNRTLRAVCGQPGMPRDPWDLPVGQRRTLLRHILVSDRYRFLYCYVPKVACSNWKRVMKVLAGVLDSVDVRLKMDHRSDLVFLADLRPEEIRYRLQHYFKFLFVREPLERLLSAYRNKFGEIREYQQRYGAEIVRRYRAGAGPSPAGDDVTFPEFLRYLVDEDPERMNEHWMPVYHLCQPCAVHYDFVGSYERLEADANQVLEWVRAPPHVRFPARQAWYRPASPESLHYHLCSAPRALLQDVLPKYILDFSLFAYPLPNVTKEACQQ

compound: COc1ccc(Cn2ccc3ccc(C(=O)NO)cc32)cc1; assay: dose-dependent thermal stabilisation call (2D-TPP, DLPTP, 10% FDR) (binary (1 = stabilised)); higher = stabilised by the compound; settings: system: HL-60 intact cells; concentration range 0.04-10 µM

How did the “dose-dependent thermal stabilisation call” value turn out when CCDC101 (UniProt Q96ES7) was run?
Its value is inactive: 0.

How did the “dose-dependent thermal stabilisation call” value turn out when CCND2 (UniProt P30279) was run?
Its value is inactive: 0.

CD97 (UniProt P48960) was tested. Which “dose-dependent thermal stabilisation call” value did it give?
The value was inactive: 0.

How did the “dose-dependent thermal stabilisation call” value turn out when CDC2L1 (UniProt P21127) was run?
Its value is inactive: 0.

With CCDC58 (UniProt Q4VC31) as the target, how does the “dose-dependent thermal stabilisation call” value read?
The value was inactive: 0.

Which “dose-dependent thermal stabilisation call” value does the source give for CCDC21 (UniProt Q6P2H3) here?
Its value is inactive: 0.

With CHMP2B (UniProt Q9UQN3) as the target, how does the “dose-dependent thermal stabilisation call” value read?
The value was inactive: 0.

For CCDC86 (UniProt Q9H6F5), which “dose-dependent thermal stabilisation call” value is on record?
Its value is inactive: 0.

CDCA3 (UniProt Q99618) was tested. Which “dose-dependent thermal stabilisation call” value did it give?
The value was inactive: 0.

For CEP192 (UniProt Q8TEP8), which “dose-dependent thermal stabilisation call” value is on record?
Its value is inactive: 0.

Which “dose-dependent thermal stabilisation call” value does the source give for CD59 (UniProt P13987) here?
Its value is inactive: 0.

Which “dose-dependent thermal stabilisation call” value does the source give for CINP (UniProt Q9BW66) here?
Its value is inactive: 0.

Which “dose-dependent thermal stabilisation call” value does the source give for CES2 (UniProt O00748) here?
The value was inactive: 0.

How did the “dose-dependent thermal stabilisation call” value turn out when CCBL2 (UniProt Q6YP21) was run?
Its value is inactive: 0.

CEP135 (UniProt Q66GS9) was tested. Which “dose-dependent thermal stabilisation call” value did it give?
The value was inactive: 0.

CCPG1 (UniProt Q9ULG6) was tested. Which “dose-dependent thermal stabilisation call” value did it give?
Its value is active: 1.

For CCDC150 (UniProt Q8NCX0), which “dose-dependent thermal stabilisation call” value is on record?
The value was inactive: 0.

For CD82 (UniProt P27701), which “dose-dependent thermal stabilisation call” value is on record?
The value was inactive: 0.

For CHAC2 (UniProt Q8WUX2), which “dose-dependent thermal stabilisation call” value is on record?
Its value is inactive: 0.

With CHKB (UniProt Q9Y259) as the target, how does the “dose-dependent thermal stabilisation call” value read?
The value was inactive: 0.

With CDAN1 (UniProt Q8IWY9) as the target, how does the “dose-dependent thermal stabilisation call” value read?
The value was inactive: 0.

For CDC37 (UniProt Q16543), which “dose-dependent thermal stabilisation call” value is on record?
The value was inactive: 0.

How did the “dose-dependent thermal stabilisation call” value turn out when CLN8 (UniProt Q9UBY8) was run?
The value was inactive: 0.

Which “dose-dependent thermal stabilisation call” value does the source give for CDC40 (UniProt O60508) here?
The value was inactive: 0.

Which “dose-dependent thermal stabilisation call” value does the source give for CCDC91 (UniProt Q7Z6B0) here?
Its value is inactive: 0.

Which “dose-dependent thermal stabilisation call” value does the source give for CENPC1 (UniProt Q03188) here?
Its value is inactive: 0.

With CD3EAP (UniProt O15446) as the target, how does the “dose-dependent thermal stabilisation call” value read?
Its value is inactive: 0.

Which “dose-dependent thermal stabilisation call” value does the source give for CDK8 (UniProt P49336) here?
The value was inactive: 0.

With CD151 (UniProt P48509) as the target, how does the “dose-dependent thermal stabilisation call” value read?
Its value is inactive: 0.

How did the “dose-dependent thermal stabilisation call” value turn out when CD47 (UniProt Q08722) was run?
Its value is inactive: 0.

For CLIC4 (UniProt Q9Y696), which “dose-dependent thermal stabilisation call” value is on record?
Its value is inactive: 0.

CCT4 (UniProt P50991) was tested. Which “dose-dependent thermal stabilisation call” value did it give?
Its value is inactive: 0.

Which “dose-dependent thermal stabilisation call” value does the source give for CEP120 (UniProt Q8N960) here?
The value was inactive: 0.

How did the “dose-dependent thermal stabilisation call” value turn out when CIT (UniProt O14578) was run?
Its value is inactive: 0.

CDC123 (UniProt O75794) was tested. Which “dose-dependent thermal stabilisation call” value did it give?
The value was inactive: 0.

Which “dose-dependent thermal stabilisation call” value does the source give for CHST11 (UniProt Q9NPF2) here?
Its value is inactive: 0.

Which “dose-dependent thermal stabilisation call” value does the source give for CHST14 (UniProt Q8NCH0) here?
The value was inactive: 0.

CLCC1 (UniProt Q96S66) was tested. Which “dose-dependent thermal stabilisation call” value did it give?
Its value is inactive: 0.
